Data as given in PubChem BioAssay AID1224830 (NIAID, 2016)
This is an unselected part of about 18,000 reagents. About 2,900 of them (16%) count as active. 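Calls are made per well; low scores hint the gene aids the LPS response, high scores that it dampens it.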 Repeated entries: four replicate wells of each siRNA pool.

- Purpose: 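Host factors that control LPS-induced TNF expression in human macrophages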 (primary screen)
- Cell system: human THP-1 monocytic leukaemia cells, TNF dual-luciferase reporter clone, PMA-differentiated to macrophage-like cells
- Reagent: siRNA pool against human genes, 50 nM
- Time to read-out: LPS for 4 h, given about 3 days after siRNA transfection
- Challenge: bacterial LPS (TLR4 ligand), 10 ng/ml
- Measured: 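Ratio of firefly to renilla light, scaled to the plate median and expressed as a robust z-score per replicate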
- Scale: TNF reporter robust z-score: higher = stronger TNF reporter response to LPS
- Active means: 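Each well counts as active if its z-score is over 2.8 or under -1.5; controls are left without a call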

Gene | TNF reporter robust z-score | outcome
RSRP1 | 0.24 | inactive
RSRP1 | -0.23 | inactive
RSRP1 | 0.16 | inactive
RSRP1 | -0.05 | inactive
STRN3 | -0.61 | inactive
STRN3 | 0.3 | inactive
STRN3 | -0.36 | inactive
STRN3 | 0.06 | inactive
MIEF1 | 0.62 | inactive
MIEF1 | 0.81 | inactive
MIEF1 | 1.38 | inactive
MIEF1 | 1.61 | inactive
OR5B3 | -0.3 | inactive
OR5B3 | -0.8 | inactive
OR5B3 | -1.45 | inactive
OR5B3 | -0.36 | inactive
NRBP1 | -0.97 | inactive
NRBP1 | -0.29 | inactive
NRBP1 | 0.03 | inactive
NRBP1 | 0.59 | inactive
C6orf58 | 2.19 | inactive
C6orf58 | -0.09 | inactive
C6orf58 | 0.01 | inactive
C6orf58 | -1.15 | inactive
ERCC4 | -0.7 | inactive
ERCC4 | 0.6 | inactive
ERCC4 | -0.18 | inactive
ERCC4 | 0.18 | inactive
JMJD6 | -1.07 | inactive
JMJD6 | -0.3 | inactive
JMJD6 | -0.55 | inactive
JMJD6 | -0.27 | inactive

Ordered by “TNF reporter robust z-score” (highest first): 3 of the entries above
Gene | TNF reporter robust z-score | outcome
STRN3 | 0.3 | inactive
RSRP1 | -0.05 | inactive
STRN3 | -0.61 | inactive

More records follow.
Gene | TNF reporter robust z-score | outcome
LMF2 | 0.17 | inactive
LMF2 | -0.01 | inactive
LMF2 | 0.77 | inactive
LMF2 | -0.21 | inactive
KRT80 | -1.01 | inactive
KRT80 | 0.19 | inactive
KRT80 | 0.34 | inactive
KRT80 | 0.63 | inactive
SPINK8 | -0.74 | inactive
SPINK8 | -1.12 | inactive
SPINK8 | -0.19 | inactive
SERPINB11 | -0.33 | inactive
SERPINB11 | 0.39 | inactive
SERPINB11 | 0.99 | inactive
SERPINB11 | 0.65 | inactive
ULBP2 | -0.96 | inactive
ULBP2 | 0.53 | inactive
ULBP2 | 1.5 | inactive
ULBP2 | 1.91 | inactive
CLEC4D | 0.9 | inactive
CLEC4D | 3 | active
CLEC4D | 0.48 | inactive
CLEC4D | 2 | inactive
LIMD1 | 0.79 | inactive
LIMD1 | 1.55 | inactive
LIMD1 | -0.58 | inactive
LIMD1 | 1.67 | inactive
TNP2 | 0.08 | inactive
TNP2 | 1.35 | inactive
TNP2 | 0.56 | inactive
TNP2 | 1.69 | inactive
SERPINB13 | 1.91 | inactive
SERPINB13 | 3.38 | active
SERPINB13 | -0.22 | inactive
SERPINB13 | 0.66 | inactive
DGCR8 | -0.5 | inactive
DGCR8 | -0.33 | inactive
DGCR8 | 0.16 | inactive
DGCR8 | 0.38 | inactive
DIDO1 | 0.58 | inactive
DIDO1 | 1 | inactive
DIDO1 | 0.14 | inactive
DIDO1 | 0.13 | inactive
